For 2 molecules, binding results are on record in article PMC9654362.

The assay has as its target 3xFlag-FTH1 (ferritin heavy chain, H Ferritin subunit) (human) (UniProt P02794). The assay is described as follows: affinity purification with mass spectrometry; 3xFlag-FTH1 immunoprecipitated from HEK-293T lysate on anti-FLAG M2 magnetic beads after pre-clearing on Protein G Dynabeads; washes with 150 and 300 mM NaCl in lysis buffer; elution with 3xFLAG peptide; SDS-PAGE, in situ trypsin digestion, nanoLC-MS/MS; empty vector as control.

No constants are given. Whether binding was seen depends on the method and setting. In cells and extracts the contact can be indirect. A yes stands for co-enrichment or nearness to the bait. Other partners may have been found.

B1: Peroxiredoxin 6 (PRDX6), endogenous in HEK-293T (enzyme, UniProt P30041 1-224)
chain: MPGGLLLGDVAPNFEANTTVGRIRFHDFLGDSWGILFSHPRDFTPVCTTELGRAAKLAPEFAKRNVKLIALSIDSVEDHLAWSKDINAYNCEEPTEKLPFPIIDDRNRELAILLGMLDPAEKDEKGMPVTARVVFVFGPDKKLKLSILYPATTGRNFDEILRVVISLQLTAEKRVATPVDWKDGDSVMVLPTIPEEEAKKLFPKGVFTKELPSGKKYLRYTPQP
Consider B1, for which the binding result is given as “binds”.

B2: CDKAL1 (enzyme, UniProt Q5VV42 1-579)
chain: MPSASCDTLLDDIEDIVSQEDSKPQDRHFVRKDVVPKVRRRNTQKYLQEEENSPPSDSTIPGIQKIWIRTWGCSHNNSDGEYMAGQLAAYGYKITENASDADLWLLNSCTVKNPAEDHFRNSIKKAQEENKKIVLAGCVPQAQPRQDYLKGLSIIGVQQIDRVVEVVEETIKGHSVRLLGQKKDNGRRLGGARLDLPKIRKNPLIEIISINTGCLNACTYCKTKHARGNLASYPIDELVDRAKQSFQEGVCEIWLTSEDTGAYGRDIGTNLPTLLWKLVEVIPEGAMLRLGMTNPPYILEHLEEMAKILNHPRVYAFLHIPVQSASDSVLMEMKREYCVADFKRVVDFLKEKVPGITIATDIICGFPGETDQDFQETVKLVEEYKFPSLFINQFYPRPGTPAAKMEQVPAQVKKQRTKDLSRVFHSYSPYDHKIGERQQVLVTEESFDSKFYVAHNQFYEQVLVPKNPAFMGKMVEVDIYESGKHFMKGQPVSDAKVYTPSISKPLAKGEVSGLTKDFRNGLGNQLSSGSHTSAASQCDSASSRMVLPMPRLHQDCALRMSVGLALLGLLFAFFVKVYN
For the molecule B2, the binding result is given as “binds”.
